Assay results as given in publication doi:10.1101/2024.01.29.24301801.
Results are given in words; binding and its absence hold for the method and conditions named. In cells and extracts the contact can be indirect. Some results given as binding are weak or reduced against the parent protein; the word gives no strength.

Protein sequences, listed by entry. Tags and fused reporters are not part of them. Lines headed by an entry give the natural chain unless they say otherwise; changes in a name come on top.
UniProt O15379: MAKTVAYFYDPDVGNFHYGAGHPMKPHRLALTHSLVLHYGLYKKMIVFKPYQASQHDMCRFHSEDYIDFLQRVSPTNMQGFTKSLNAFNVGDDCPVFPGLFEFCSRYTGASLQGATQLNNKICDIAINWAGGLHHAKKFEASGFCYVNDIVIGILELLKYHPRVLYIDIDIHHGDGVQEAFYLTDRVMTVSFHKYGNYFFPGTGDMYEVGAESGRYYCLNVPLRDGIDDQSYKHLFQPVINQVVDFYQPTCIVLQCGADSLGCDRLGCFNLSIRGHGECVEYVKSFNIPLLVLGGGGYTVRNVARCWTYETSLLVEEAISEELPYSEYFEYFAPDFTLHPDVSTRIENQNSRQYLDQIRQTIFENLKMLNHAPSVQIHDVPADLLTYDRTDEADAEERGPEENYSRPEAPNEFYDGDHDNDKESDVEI
UniProt O75376: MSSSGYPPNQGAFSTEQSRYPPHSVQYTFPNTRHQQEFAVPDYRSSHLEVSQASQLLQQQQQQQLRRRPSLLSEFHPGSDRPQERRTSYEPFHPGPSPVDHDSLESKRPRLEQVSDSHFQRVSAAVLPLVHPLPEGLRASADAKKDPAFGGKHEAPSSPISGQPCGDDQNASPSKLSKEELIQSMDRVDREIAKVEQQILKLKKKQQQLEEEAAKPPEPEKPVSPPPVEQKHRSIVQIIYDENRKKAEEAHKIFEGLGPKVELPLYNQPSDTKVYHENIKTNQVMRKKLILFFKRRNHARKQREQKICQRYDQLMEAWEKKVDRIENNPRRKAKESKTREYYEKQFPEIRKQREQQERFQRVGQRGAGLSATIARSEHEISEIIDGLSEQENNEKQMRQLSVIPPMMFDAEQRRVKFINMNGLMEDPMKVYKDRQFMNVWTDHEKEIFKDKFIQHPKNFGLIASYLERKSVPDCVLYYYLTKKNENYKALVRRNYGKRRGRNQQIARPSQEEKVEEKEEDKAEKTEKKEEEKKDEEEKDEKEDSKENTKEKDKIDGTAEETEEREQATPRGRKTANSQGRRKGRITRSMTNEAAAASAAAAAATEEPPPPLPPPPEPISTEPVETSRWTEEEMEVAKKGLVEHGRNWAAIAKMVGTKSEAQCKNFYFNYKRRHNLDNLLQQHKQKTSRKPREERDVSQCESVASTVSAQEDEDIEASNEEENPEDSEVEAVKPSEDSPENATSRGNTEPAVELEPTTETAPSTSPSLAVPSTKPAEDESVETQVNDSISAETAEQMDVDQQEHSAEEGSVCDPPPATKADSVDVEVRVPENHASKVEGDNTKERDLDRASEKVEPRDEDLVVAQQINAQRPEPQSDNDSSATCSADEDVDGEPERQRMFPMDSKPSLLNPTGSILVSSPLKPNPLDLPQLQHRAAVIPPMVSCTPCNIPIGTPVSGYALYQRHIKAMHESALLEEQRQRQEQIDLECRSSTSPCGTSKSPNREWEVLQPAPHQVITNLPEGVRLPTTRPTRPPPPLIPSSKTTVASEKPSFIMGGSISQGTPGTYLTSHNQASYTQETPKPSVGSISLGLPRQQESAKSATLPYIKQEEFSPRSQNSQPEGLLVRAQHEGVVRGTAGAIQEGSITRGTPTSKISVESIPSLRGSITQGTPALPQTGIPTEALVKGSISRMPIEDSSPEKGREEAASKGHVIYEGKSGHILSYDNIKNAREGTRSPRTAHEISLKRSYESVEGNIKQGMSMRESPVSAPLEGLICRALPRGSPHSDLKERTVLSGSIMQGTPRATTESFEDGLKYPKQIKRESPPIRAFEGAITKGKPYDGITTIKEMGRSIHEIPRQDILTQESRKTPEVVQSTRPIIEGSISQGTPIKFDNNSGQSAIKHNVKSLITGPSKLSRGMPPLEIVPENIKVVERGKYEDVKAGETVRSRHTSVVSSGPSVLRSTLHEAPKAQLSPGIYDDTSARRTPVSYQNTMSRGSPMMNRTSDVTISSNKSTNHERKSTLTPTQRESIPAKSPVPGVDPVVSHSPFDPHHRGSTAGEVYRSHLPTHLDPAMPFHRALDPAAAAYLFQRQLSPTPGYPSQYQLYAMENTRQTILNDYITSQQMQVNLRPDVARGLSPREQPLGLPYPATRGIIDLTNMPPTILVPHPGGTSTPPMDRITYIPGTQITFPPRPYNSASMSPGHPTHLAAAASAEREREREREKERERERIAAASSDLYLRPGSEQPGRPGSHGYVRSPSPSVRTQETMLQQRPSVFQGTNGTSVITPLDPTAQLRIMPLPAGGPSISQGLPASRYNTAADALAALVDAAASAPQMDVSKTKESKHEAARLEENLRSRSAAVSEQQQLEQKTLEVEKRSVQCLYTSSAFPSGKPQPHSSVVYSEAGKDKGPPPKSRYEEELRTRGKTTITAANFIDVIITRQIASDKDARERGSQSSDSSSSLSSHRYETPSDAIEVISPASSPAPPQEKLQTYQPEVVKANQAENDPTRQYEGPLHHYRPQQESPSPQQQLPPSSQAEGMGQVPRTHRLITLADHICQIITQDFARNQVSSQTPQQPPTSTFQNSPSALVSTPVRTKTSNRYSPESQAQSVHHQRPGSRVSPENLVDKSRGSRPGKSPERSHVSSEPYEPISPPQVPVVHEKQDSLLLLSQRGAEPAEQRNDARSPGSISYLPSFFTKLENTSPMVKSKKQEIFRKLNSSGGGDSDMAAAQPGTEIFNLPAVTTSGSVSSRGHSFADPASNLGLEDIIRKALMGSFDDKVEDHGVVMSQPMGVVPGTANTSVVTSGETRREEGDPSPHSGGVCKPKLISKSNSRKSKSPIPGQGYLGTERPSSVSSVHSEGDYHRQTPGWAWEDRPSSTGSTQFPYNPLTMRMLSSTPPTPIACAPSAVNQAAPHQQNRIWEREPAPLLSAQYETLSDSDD

What was measured:
[1] = target: FLAG-tagged HDAC3 R359C variant (HEK293T) (human) (UniProt O15379); experiment: co-IP
[2] = target: FLAG-tagged HDAC3 G267S variant (HEK293T) (human) (UniProt O15379); experiment: co-IP

## nuclear receptor co-repressor 1 (NCoR1), full-length (from UniProt O75376 1-2440)
[1]
  binding: binds
[2]
  binding: binds
